This assay has as its target T1, CFAP57 (cilia and flagella associated protein 57), mouse (mouse (endogenous in testis)) (UniProt Q9D180).
T1 sequence: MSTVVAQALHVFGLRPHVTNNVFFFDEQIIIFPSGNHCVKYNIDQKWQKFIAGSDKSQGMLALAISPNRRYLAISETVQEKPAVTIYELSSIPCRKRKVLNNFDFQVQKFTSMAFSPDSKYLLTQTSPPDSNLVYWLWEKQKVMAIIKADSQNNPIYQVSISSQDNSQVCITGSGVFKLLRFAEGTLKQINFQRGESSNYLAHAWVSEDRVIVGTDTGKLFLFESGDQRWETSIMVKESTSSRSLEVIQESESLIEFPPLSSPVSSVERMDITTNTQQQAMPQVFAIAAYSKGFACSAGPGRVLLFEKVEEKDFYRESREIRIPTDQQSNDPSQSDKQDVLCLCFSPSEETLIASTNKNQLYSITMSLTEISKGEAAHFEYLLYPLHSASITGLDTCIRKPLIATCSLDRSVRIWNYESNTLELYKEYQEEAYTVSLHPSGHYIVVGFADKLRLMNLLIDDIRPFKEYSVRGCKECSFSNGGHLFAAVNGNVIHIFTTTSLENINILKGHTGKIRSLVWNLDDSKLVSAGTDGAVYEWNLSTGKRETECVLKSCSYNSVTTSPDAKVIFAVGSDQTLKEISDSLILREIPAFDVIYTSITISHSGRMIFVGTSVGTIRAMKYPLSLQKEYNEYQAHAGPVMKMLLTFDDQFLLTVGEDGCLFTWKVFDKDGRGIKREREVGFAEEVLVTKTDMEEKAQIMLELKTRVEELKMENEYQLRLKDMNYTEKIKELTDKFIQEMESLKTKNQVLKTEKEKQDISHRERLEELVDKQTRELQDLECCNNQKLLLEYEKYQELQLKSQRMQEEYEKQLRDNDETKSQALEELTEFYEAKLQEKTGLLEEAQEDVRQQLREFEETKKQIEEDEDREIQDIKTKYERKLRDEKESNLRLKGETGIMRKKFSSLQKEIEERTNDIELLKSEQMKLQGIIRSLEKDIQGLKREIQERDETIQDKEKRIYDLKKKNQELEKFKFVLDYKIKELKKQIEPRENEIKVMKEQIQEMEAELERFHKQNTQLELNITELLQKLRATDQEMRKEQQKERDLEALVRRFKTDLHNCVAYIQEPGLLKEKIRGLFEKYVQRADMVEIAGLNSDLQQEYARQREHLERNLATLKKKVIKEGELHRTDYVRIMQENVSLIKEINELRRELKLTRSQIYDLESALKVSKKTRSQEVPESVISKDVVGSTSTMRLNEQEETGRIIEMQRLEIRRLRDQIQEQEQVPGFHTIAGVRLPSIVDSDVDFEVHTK
Description: affinity purification with mass spectrometry; WT and Cfap57^M/M mouse testis lysate (50 mM Tris-HCl pH 7.4, 150 mM NaCl, 1% NP-40, 1 mM EDTA, 0.1% SDS); anti-CFAP57 or IgG overnight at 4 °C, protein G agarose beads, five washes; SDS-PAGE, silver staining, in-gel trypsin digest, LC-MS/MS.

Amino acid sequences for entries named in this document (tags omitted).
UniProt Q61879: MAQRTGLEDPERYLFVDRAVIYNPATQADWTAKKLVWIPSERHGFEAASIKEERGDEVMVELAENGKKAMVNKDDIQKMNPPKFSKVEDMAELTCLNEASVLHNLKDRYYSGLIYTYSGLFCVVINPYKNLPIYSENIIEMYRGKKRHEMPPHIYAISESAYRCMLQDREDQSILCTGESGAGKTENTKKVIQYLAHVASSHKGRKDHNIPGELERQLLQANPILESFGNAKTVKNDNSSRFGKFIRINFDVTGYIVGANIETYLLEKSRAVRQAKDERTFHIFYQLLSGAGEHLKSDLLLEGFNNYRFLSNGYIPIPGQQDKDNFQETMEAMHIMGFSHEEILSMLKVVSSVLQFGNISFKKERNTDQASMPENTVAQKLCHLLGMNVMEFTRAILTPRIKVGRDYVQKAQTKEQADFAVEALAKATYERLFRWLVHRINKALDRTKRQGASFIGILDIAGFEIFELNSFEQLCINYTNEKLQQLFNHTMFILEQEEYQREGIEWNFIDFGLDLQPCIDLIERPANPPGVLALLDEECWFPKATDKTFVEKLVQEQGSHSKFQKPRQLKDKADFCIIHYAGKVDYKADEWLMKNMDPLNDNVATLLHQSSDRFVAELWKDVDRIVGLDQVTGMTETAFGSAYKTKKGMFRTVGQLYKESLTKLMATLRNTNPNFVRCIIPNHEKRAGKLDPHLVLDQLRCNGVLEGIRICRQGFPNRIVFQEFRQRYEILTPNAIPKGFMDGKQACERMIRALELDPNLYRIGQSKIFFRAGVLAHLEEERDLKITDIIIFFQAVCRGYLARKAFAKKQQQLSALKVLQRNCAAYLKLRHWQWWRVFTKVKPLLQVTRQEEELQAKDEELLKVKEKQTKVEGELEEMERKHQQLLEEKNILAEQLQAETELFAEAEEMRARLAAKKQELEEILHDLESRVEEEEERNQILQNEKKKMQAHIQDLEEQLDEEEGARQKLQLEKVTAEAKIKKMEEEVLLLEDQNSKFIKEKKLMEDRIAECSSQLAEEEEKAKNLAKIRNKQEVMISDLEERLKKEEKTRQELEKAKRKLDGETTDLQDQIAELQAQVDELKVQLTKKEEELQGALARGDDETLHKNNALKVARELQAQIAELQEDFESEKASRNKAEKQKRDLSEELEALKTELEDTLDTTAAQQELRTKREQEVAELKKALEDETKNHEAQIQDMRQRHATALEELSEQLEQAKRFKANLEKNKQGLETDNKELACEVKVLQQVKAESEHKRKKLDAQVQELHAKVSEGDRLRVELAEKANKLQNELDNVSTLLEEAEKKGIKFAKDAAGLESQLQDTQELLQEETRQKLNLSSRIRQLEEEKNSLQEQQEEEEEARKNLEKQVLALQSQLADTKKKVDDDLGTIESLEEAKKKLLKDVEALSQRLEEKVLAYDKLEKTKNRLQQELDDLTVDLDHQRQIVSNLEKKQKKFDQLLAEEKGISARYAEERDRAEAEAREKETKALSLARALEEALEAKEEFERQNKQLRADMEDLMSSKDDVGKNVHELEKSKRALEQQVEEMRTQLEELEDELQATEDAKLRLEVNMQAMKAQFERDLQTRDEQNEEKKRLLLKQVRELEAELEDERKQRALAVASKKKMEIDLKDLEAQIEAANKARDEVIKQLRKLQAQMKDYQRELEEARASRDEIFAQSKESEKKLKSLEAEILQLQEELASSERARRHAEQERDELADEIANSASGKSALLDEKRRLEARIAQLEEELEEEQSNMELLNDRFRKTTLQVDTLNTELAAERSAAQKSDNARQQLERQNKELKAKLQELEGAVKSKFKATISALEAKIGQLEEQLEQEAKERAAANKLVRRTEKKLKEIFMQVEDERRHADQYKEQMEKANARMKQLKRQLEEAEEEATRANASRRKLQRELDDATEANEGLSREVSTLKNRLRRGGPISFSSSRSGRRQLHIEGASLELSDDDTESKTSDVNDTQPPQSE

Among the data in article PMC12751231 are binding values, retold here.

No constants are given. Whether binding was seen depends on the method and setting. Binding seen in cells or lysates may run through a third protein. A yes stands for co-enrichment or nearness to the bait. Other partners may have been found. Tags and fused reporters may be left off the sequences shown.

For the substance “MYH10, a non-muscle myosin II isoform, mouse (from UniProt Q61879 1-1976)”, the binding entry is recorded as “binds”.

As for RAB1, mouse, the binding result was “binds”.
